# According to PubChem BioAssay AID652054 (National Center for Advancing Translational Sciences (NCATS), 2013):
# Amino acid sequences for entries named in this document (tags omitted).
# UniProt P35462, whole entry, looked up: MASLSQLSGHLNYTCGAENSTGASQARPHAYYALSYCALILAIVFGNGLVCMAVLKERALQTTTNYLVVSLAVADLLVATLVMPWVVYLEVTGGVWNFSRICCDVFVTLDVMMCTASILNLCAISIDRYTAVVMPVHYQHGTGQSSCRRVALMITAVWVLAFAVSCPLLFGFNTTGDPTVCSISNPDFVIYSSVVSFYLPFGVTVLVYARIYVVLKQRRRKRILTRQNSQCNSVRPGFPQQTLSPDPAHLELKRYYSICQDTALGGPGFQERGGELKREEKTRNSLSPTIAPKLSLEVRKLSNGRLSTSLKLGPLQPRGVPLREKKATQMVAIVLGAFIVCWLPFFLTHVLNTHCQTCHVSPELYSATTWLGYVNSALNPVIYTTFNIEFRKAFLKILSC
# Screen size: about 360,000 compounds; about 9,100 (2.5%) were called active. This list was built around the results that the source calls inconclusive (neither active nor inactive); the mix of calls is not that of the screen. Cut-off read from the data, not from the text of the source: active = max response below about -50%; inconclusive = no clear call, values can overlap the other calls; inactive = above that.
# Target: D(3) dopamine receptor (Homo sapiens) (UniProt P35462)
# Assay: qHTS of D3 Dopamine Receptor Antagonist: qHTS
# Settings: D3R cells, DiscoveRx beta-arrestin luminescence, antagonist mode; active compounds read low
# Summary of the method: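 Cells plated overnight at 1500 cells/well, then exposed to library compounds with dopamine controls for 90 minutes at 37 degrees C. DiscoveRx reagent added for 30–60 minutes at room temperature; luminescence read, quantitative HTS format.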
# % is set by controls: 0 for no effect and ±100 for the full control effect.
row,SMILES,"max response, negative = inhibition"
1,Cc1ccc2nc(-c3cccc(Br)c3)c(Cc3cccc(Cl)c3)n2c1,inconclusive: -32.8%
2,C[C@@H](NCCCn1cnc2c(OCc3ccccc3)ncnc21)c1cccc2ccccc12,inconclusive: -30.6%
3,CCOC(=O)/C=C/[C@H]1CCc2cccc(C)c2O1,active: -62.7%
4,CC(O)CNCCCOc1cccc(Oc2ccccc2)c1 (stereo not drawn),inconclusive: -32.9%
5,O=C(COc1coc(CN2CCN(c3ccccc3)CC2)cc1=O)N1CCc2ccccc21,inconclusive: -34.2%
6,CC1CCN(CCOCCOc2ccccc2Br)CC1,active: -61.3%
7,Nc1nc(=S)ss1,inconclusive: -36.4%
8,CCC1(C)Cc2c(sc3nnn(CC(=O)Nc4ccc(Cl)cc4)c(=O)c23)CO1 (stereo not drawn),inconclusive: -46.7%
9,COc1ccc(Br)cc1CNC(C)c1ccccc1 (stereo not drawn),inconclusive: -38.7%
10,O=C(NCCCN1CCCC1)C1CCN(C(=O)c2cc3sccc3n2Cc2ccc(F)cc2)CC1,active: -52.4%
11,CC(C)NCC(O)(c1ccc(Cl)cc1)c1ccc(Cl)cc1,inactive: 1.93%
12,CC(=O)Nc1ccc(/C=C/c2nc3ccccc3[nH]c2=O)cc1,inactive: 1.17%
13,COCCn1nnnc1C(c1ccccc1OC)N1CCN(c2ccccc2F)CC1 (stereo not drawn),inactive: 0%
14,CN1C(CC(=O)Nc2ccc(Br)cc2)c2ccccc2CC1(C)C (stereo not drawn),inconclusive: -33.9%
15,O=C(Nc1ccccc1Oc1cccnc1)C1CCCN(C/C=C/c2ccccc2)C1 (stereo not drawn),active: -60.5%
16,CCOC(=O)C1CCN(CCCSc2ccc(Cl)cc2)CC1,inconclusive: -38.7%
17,CCCCCCn1c(=O)c(-c2ccccc2)c(O)c2ccccc21,inconclusive: -38.4%
18,Cc1cccc(NC(=O)CCCn2c(=S)[nH]c3ccccc3c2=O)c1,inactive: -16.7%
19,COc1ccc(/C=C/C2=CCN(Cc3ccc(OC)cc3)CC2)cc1,inconclusive: -39.8%
20,CC[C@]12c3[nH]c4ccccc4c3CCN1C(=O)C(CC(=O)NCCCN(C)C)C[C@@H]2C(=O)N1CCN(C(=O)C2CC2)CC1 (stereo partly drawn),active: -59.2%

# Among those listed so far, 3 contain an NH in an aromatic ring.
row,SMILES,"max response, negative = inhibition"
12,CC(=O)Nc1ccc(/C=C/c2nc3ccccc3[nH]c2=O)cc1,inactive: 1.17%
18,Cc1cccc(NC(=O)CCCn2c(=S)[nH]c3ccccc3c2=O)c1,inactive: -16.7%
20,CC[C@]12c3[nH]c4ccccc4c3CCN1C(=O)C(CC(=O)NCCCN(C)C)C[C@@H]2C(=O)N1CCN(C(=O)C2CC2)CC1 (stereo partly drawn),active: -59.2%

# Additional records:

row,SMILES,"max response, negative = inhibition"
1,Nc1nn(-c2ccccc2)c2ccc([N+](=O)[O-])cc12,inconclusive: -39.3%
2,Cc1cccc2cc(CN(Cc3ccco3)C(=O)c3ccncc3)c(=O)[nH]c12,inconclusive: -36.7%
3,CCOC(=O)C1=C(c2ccccc2)N=c2s/c(=C\c3ccc(O)cc3)c(=O)n2C1c1cccs1 (stereo not drawn),active: -56.9%
4,O=C(O)c1cnc(-c2ccccc2)nc1Sc1ccccc1,inconclusive: -43%
5,CCOc1cc(/C=C2\SC(=S)N(Nc3ccccc3)C2=O)ccc1O,inconclusive: -40%
6,O=C(O)CCSc1nnc(COc2cccc3cccnc23)n1-c1ccccc1,inactive: 11.5%
7,O=C1CC(c2ccccc2)CC(O)=C1C=NCc1ccc(Cl)cc1 (stereo not drawn),inconclusive: -45.4%
8,Cc1ccc(C)c(NC(=O)c2ccc(S(=O)(=O)N(C)CC3CCCO3)cc2)c1 (stereo not drawn),inconclusive: -34.4%
9,CC1(C(=O)NS(=O)(=O)c2ccccc2OC(F)(F)F)CCN1C(=O)Cc1ccccc1 (stereo not drawn),inconclusive: -31.3%
10,CN1CCN(c2nc(C(N)=O)cc(-c3ccccc3)n2)CC1,inconclusive: -46.4%
11,CC1=C(C(=O)N(C)C)CC(CC(=O)NCc2cccs2)C(=O)N1CCC1=CCCCC1 (stereo not drawn),inconclusive: -46.8%
12,O=C(NNC(=O)c1cccc(O)c1)Nc1ccc([N+](=O)[O-])cc1,active: -57.3%
13,Cn1nc(-c2ccccc2)c2nc3ccccc3nc21,inconclusive: -38.3%
14,CCN(CC)S(=O)(=O)c1ccc(NC(=O)CSc2nc3nc(C)cc(C)c3c(=O)[nH]2)cc1,inconclusive: -43.2%
15,CCc1nnc(NC(=O)NCN2C(=O)C3C4C=CC(C4)C3C2=O)s1 (stereo not drawn),inconclusive: -49.6%
16,CCC(Sc1nc2ccncc2[nH]1)C(=O)Nc1cc(Cl)ccc1C (stereo not drawn),inactive: 152%
17,CCNC(=O)O/N=C(\C)c1sc(-c2ccc(Cl)cc2)nc1C,inactive: 12.2%
18,O=C(Cn1nnc(-c2ccccc2)c1COc1ccc2ccccc2c1)NCC1CC1,inconclusive: -49.5%
19,CCN(CC)c1ccc(/C=C2\SC(=O)N(C(C)C)C2=O)o1,inconclusive: -31%
20,CCCCN(C=O)c1c(CC)nc2c(OCc3ccc(Cl)cc3Cl)cccn12,active: -56.9%

row,SMILES,"max response, negative = inhibition"
1,O=C(CCN1CCN(c2ccccc2)CC1)Nc1nccs1,active: -64.1%
2,CCC(C)NC(=O)CSc1n[nH]c(-c2cc(Cl)ccc2OC)n1 (stereo not drawn),inactive: -13%
3,Fc1ccccc1Cn1cc(C(=S)N2CCOCC2)c2ccccc21,inactive: -0.684%
4,COc1ccc(CCNc2oc(-c3ccc(C)cc3)nc2C#N)cc1OC,inactive: -15.2%
5,CCOc1ccc(/C=N/Nc2ccccc2)cc1,inactive: 4.62%
6,COc1ccc(-n2ccc(-c3nn(-c4cccc(C(F)(F)F)c4)ccc3=O)n2)cc1,inconclusive: -38.5%
7,C=C1C(=O)C=C[C@]2(C)C[C@@H]3OC(=O)[C@](C)(O)[C@H]3C[C@@H]12,inconclusive: -48.7%
8,Cc1cc(C(=O)N(NC(=O)C(C)C)c2ccccc2)cs1,inconclusive: -36.6%
9,COC(=O)C1CCN(C(=O)N2CCOCC2)CC1,inactive: 24.2%
10,Fc1cccc(Cl)c1CNC(c1ccccc1)c1ccccc1,inconclusive: -36.3%
11,CC(NC(=O)COc1ccccc1)C(=O)OCC(=O)c1cc2ccccc2o1 (stereo not drawn),inconclusive: -30.3%
12,O=C(NC1(C(F)(F)F)C(=O)Nc2c1c(=O)[nH]c(=O)n2Cc1ccccc1)c1ccc(Cl)cc1 (stereo not drawn),inactive: 0.018%
13,COCCNC(=O)C1(C)CCCN(Cc2sc(C)nc2C)C1 (stereo not drawn),inconclusive: -32.3%
14,O=C(OCc1nc2ccsc2c(=O)[nH]1)c1ccccc1,inconclusive: -36.9%
15,CCOC(=O)C[n+]1c(C)sc2ccc(OC)cc21,inconclusive: -33.6%
16,CCC(C)c1ccc(NC(=S)Nc2ccc(OC)cc2C)cc1 (stereo not drawn),active: -133%
17,COC(=O)C1=C(C(=O)c2ccc(C)cc2)C(c2ccc(O)c(OC)c2)n2nnnc2N1 (stereo not drawn),inconclusive: -31.4%
18,Cc1ccc(S(=O)(=O)N2CCC(=O)N([C@H](COCc3ccc(Cl)cc3Cl)Cc3ccccc3)CC2)cc1,inconclusive: -49.1%
